Experimental data taken from patent publication US20080103095A1.
No constants are given. Whether binding was seen depends on the method and setting. For part of these data: Binding seen in cells or lysates may run through a third protein. Some results given as binding are weak or reduced against the parent protein; the word gives no strength. Sequences can lack the tags named with a protein.

By UniProt entry, the sequences of proteins in these tests, tags left out.
UniProt P14602: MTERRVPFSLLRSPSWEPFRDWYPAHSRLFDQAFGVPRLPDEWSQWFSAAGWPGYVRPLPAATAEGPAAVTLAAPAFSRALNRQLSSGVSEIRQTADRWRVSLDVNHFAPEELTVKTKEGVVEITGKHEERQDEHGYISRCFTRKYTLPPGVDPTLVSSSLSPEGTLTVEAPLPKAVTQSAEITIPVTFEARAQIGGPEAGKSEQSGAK

Assays:
[1] = molecular target: recombinant murine hsp25 (StressGen Biotechnological Corp) (murine) (UniProt P14602); assay: in vitro, purified proteins
[2] = molecular target: recombinant murine hsp25 (StressGen Biotechnological Corp) (murine) (UniProt P14602); assay: co-immunoprecipitation of purified protein pairs, anti-His blot
[3] = molecular target: recombinant murine hsp25 (StressGen Biotechnological Corp) (murine) (UniProt P14602); assay: co-immunoprecipitation of purified protein pairs

binding [1]: binds
binding [2]: binds
binding [3]: binds
B1: recombinant His-tagged full-length hsp110 expressed in E. coli (Example 7) (protein, UniProt Q60446 1-858, looked up)
chain: MSVVGLDVGSQSCYIAVARAGGIETIANEFSDRCTPSVISFGPKNRTIGVAAKNQQITHANNTVSSFKRFHGRAFSDPFIQKEKESLSYDLVPMKNGGVGIKVMYMDEEHLFSVEQITAMLLTKLKETAENNLKKPVTDCVISVPSFFTDAERRSVLDAAQIVGLNCLRLMNDMTAVALNYGIYKQDLPNADEKPQGSGVCGHGPSSFQVSACAFNKGKLKVLGTAFDPFLGGKNFDEKLVEHFCAEFKTKYKLDAKSKIRALLRLHQECEKLKKLMSSNSTDLPLNIECFMNDKDVSAKMNRSQFEELCAELLQKIEVPLHSLMEQTHLKTEDVSAIEIVGGATRIPAVKERIAKFFGKDVSTTLNADEAVARGCALQCAILSPAFKVREFSVTDAVPFPISLVWNHDSEETEGVHEVFSRNHAAPFSKVLTFLRRGPFELEAFYSDPQGVPYPEAKIGRFVVQNVSAQKDGEKSKVKVKVRVNTHGIFTISTASMVEKVPTEEDDGSSVEADMECPNQKPAESSDVDKNSQQDNSEAGTQPQVQTDGQQTSQSPPSPELPSEENKIPDADKANEKKVDQPPEAKKPKIKVVNVELPVEANLVWQLGRDLLNMYIETEGKMIMQDKLEKERNDAKNAVEECVYEFRDKLCGPYEKFICQQEHEKFLRLLTETEDWLYEEGEDQAKQAYIDKLEELMKMGNPVKVRFQEAEERPKVLEELGQRLQHYAKIAADFRSKDEKYNHIDESEMKKVEKSVNEVMEWMNNVMNAQAKRSLDQDPVVRTHEIRAKVKELNNVCEPVVNQPKPKIESPKLERTPNGPNLDKKEDLEGKDNFGAEAPHQNGECHPNEKGSVNMDLD
